System: cardiomyocytes of hearts post-MI
Experiment: Total RNA-seq of cardiomyocytes post-MI
Format: in vivo, mice
Settings: 12 weeks post-MI, vs control
Description: Isolation of cardiac cells. Mice were placed under the surgical plane of anesthesia before cervical dislocation. The hearts were removed and cells were isolated by Langendorff retrograde perfusion of calcium-free pH 7.4 Tyrodes solution (130 mM NaCl, […], 0.5 mM MgCl, 0.33 mM NaH2PO4, 0.25 mm HEPES, 22 mM glucose) with collagenase, 1 mg/mL for 15 minutes. The hearts were then removed from the apparatus, and finely minced in the same Tyrodes buffer with 15 mg/mL BSA before trituration with a glass pipette. Cardiomyocytes were then pelleted by differential centrifugation, 300 RPM for 3 minutes. […] Then, 0.1 mL of the mixture was removed for the “no stain control” for fluorescence-activated cell sorting (FACS). […] The cells were then pelleted and resuspended in 100 μL 0.4% FBS in PBS, counted, and passed through the 10× Genomics Chromium system.
Total RNA-Seq analysis. Sequencing reads were trimmed using the trimGalore software. Next, the reads were mapped using HISAT against the human genome build UCSC mm10, and quantified using StringTie against the Gencode gene model. […] Differentially expressed genes between tumor and normal samples were determined using a parametric t-test with p-value <0.05 and fold change of 1.25. […]

CCC1C/C(=C\c2cccnc2)C(=O)/C(=C/c2cccnc2)C1 (centres unmarked) [MCB-613]
downregulated genes in cardiomyocytes: 107 | upregulated genes in cardiomyocytes: 122

Source: patent US12338229B2, “Small molecule stimulators of steroid receptor coactivator-3 and methods of their use as cardioprotective and/or vascular regenerative agents” (BAYLOR COLLEGE OF MEDICINE, priority 2018, dated 2025)
